Reference: PubChem BioAssay AID624415 (National Center for Advancing Translational Sciences (NCATS), 2012)
Among all 390,000 compounds or so, about 60 (0.02%) were called active. Inconclusive means that the source gave no clear call. Such entries were picked first, then a sample of the others. Cut-off read from the data, not from the text of the source: active = activity change below about -50%; inconclusive = between about -30% and that limit; inactive = weaker than that.

By UniProt entry, the sequences of proteins in these tests, tags left out.
UniProt Q9GZU1, whole entry, looked up: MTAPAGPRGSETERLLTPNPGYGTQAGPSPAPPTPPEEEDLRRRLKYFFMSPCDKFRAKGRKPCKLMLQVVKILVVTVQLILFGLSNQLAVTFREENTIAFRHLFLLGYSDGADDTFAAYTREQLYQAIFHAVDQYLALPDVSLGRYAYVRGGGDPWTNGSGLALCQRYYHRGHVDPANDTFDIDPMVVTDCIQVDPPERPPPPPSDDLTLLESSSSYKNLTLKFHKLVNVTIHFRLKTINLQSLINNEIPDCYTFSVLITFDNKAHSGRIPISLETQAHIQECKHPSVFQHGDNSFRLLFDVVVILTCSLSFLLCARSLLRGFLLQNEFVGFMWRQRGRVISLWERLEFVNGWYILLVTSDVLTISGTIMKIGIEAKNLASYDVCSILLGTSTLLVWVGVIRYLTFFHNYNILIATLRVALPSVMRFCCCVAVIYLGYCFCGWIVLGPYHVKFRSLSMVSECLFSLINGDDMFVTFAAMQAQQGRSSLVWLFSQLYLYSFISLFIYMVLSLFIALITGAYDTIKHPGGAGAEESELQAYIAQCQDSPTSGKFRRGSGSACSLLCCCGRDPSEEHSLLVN

biological target: Mucolipin-1 (Homo sapiens) (UniProt Q9GZU1); assay: qHTS for Inhibitors of the Human Mucolipin Transient Receptor Potential 1 (TRPML1); settings: TRPML1-inducible cells, Ca2+ dye fluorescence, FDSS; active compounds read low; inhibition of EC80 agonist-evoked calcium signal;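 note: stimulus is agonist 54-4 at its EC80 concentration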
Excerpt: Mutations of human Mucolipin transient receptor potential 1 (TRPML1) cause type IV mucolipidosis (ML4), a devastating neurodegenerative disease in young children. […] Currently, there is no treatment for ML4. […] Under physiological conditions, TRPMLs regulate membrane trafficking by transducing information about PI(3,5)P2 levels into changes in juxtaorganellar Ca2+, thereby triggering membrane fusion/fission events in the late endocytic pathways (endolysosomal trafficking). In addition, TRPML1 mediates release of Fe2+ from late endosomes and lysosomes, which is essential for cellular iron metabolism. Thus, impaired ion (Ca2+ and Fe2+) homeostasis underlies lysosomal dysfunction and ML4 phenotypes. In ML4 cells, the problem is twofold. First, defective Ca2+-dependent membrane trafficking due to TRPML1-deficiency causes accumulation of lipids and other bio-materials in the lysosome. The second strike comes from the lysosomal iron overload (due to impairment of TRPML1's Fe2+ conductivity), which converts the accumulated materials into the nondegradable (resistant to lysosomal degradation) lipofuscin (also called aging pigment) in the lysosome. Lipofuscin accumulation dramatically compromises the functions of lysosomes.
Niemann-Pick type C (NPC) disease is another lysosome storage disease (LSD) with severe neurodegeneration during the childhood. Currently, there is no cure for NPC. […] Thus, TRPML1 is likely to be an essential regulator of lysosome ion homeostasis. We specifically hypothesize that stimulating TRPML1's Fe2+/Ca2+ channel activity in the lysosome using synthetic agonists can alleviate neurodegeneration associated with ML4 or NPC.
To this end, a high throughput screen was developed in a miniaturized format to screen against the Molecular Libraries Small Molecule Repository (MLSMR) to find small molecules that act either as inhibitors or agonist against the TRPML1 channel.
NIH Chemical Genomics Center [NCGC]
NIH Molecular Libraries Probe Centers Network [MLPCN]
Assay Submitter (PI): Haoxing Xu, University of Michigan Ann Arbor
TRPML1-DL cells are dissociated from flasks, counted and, brought up to a density of 500,000 cells per mL of media containing a 1X Tet inducer. Using a Multidrop Combi, 3 uL of this cell solution is dispensed to each well of a 1536 TC treated, black, clear bottom hi base plate for a final cell density of 1,500 cells per well. The assay plates are incubated overnight (approximately 16 hours) at 37 degrees C and 5% CO2. Using a Multidrop Combi, 2 uL of ABD Ca8 no wash dye plus quencher is added to each well. The assay plates incubate at room temperature in the dark for 45-90 minutes. The assay plate is read on the FDSS using the following protocol: 10 second baseline read, 23 nL of compounds and controls are added using 1536 pintool, agonist read for 110 seconds, 1 uL EC80 addition (4 uM final 54-4 diluted in media), antagonist read for 110 seconds.
% is set by controls: 0 for no effect and ±100 for the full control effect.

SMILES | activity change, negative = inhibition
COc1ccc(CC(=O)NC(C)c2nnc(SCCC(=O)Nc3ccccc3)n2C)cc1 (stereo unspecified) | inconclusive: -33.4%
O=C1NC[C@@H](c2ccccc2)OC(=O)[C@@H](Cc2ccc(F)cc2)CC/C=C/C[C@H]1CC(=O)N(CCO)Cc1ccccc1 | inconclusive: -30.6%
CCCn1c(=O)c(C(=O)NNC(=O)Cc2ccccc2)c(O)c2ccccc21 | inactive: 1.16%
CC(=O)c1sc(NC(=O)c2ccc(Cl)cc2)nc1C | inactive: -1.92%
COc1ccc(CCNC(=O)C2=C(C)C(=O)OC23CCCCC3)c(OC)c1OC | inactive: -2.38%
Cc1coc2cc3oc(=O)c(CCC(=O)NCCCN4CCCC4=O)c(C)c3cc12 | inactive: -4%
COCCn1nnnc1C(c1ccccn1)N1CCN(c2cccc(C)c2C)CC1 (stereo unspecified) | inconclusive: -33.3%
O=C(CN1C(=O)COc2ccc(S(=O)(=O)N3CCCC3)cc21)NCCc1ccc(Cl)cc1 | inconclusive: -40.7%
COc1ccc2oc(=O)cc(CN3CCN(C(=O)c4ccccc4Br)CC3)c2c1 | inconclusive: -35.4%
COC(=O)CSc1nnc(-c2cccc(O)c2)o1 | inconclusive: -38.7%
CCC1CN(C(=O)N2CCC(C(=O)NCc3ccccc3F)CC2)c2ccccc2O1 (stereo unspecified) | inconclusive: -48.1%
CC1(C)O[C@@H]2[C@H](O1)[C@@H](CO)O[C@H]2n1ccc(=O)[nH]c1=O | inconclusive: -30.8%
O=C(c1ccc(Br)s1)N1CCN(Cc2ccc3c(c2)OCO3)CC1 | active: -51.4%
CC(=O)c1ccc(S(=O)(=O)Nc2cccc(-c3ccc(N4CCCC4)nn3)c2)cc1 | inconclusive: -36.4%
CCOC(=O)C1=C(O)/C(=C\c2ccc(CNS(=O)(=O)c3ccc(Br)cc3)o2)N=C1C | inactive: 4.07%
Cc1cccc(NC(=O)c2cc3c(C)nn(-c4ccccc4)c3s2)c1 | inconclusive: -33%
O=C1N(Cc2ccc(F)cc2)CCN1c1ccc(F)cc1 | inconclusive: -30.2%
COC(=O)c1cc(C#N)c(N2CC(C)OC(C)C2)nc1C (stereo unspecified) | inconclusive: -30.5%
CS(=O)(=O)N1CCC(n2c(C(F)(F)F)nc3cccnc32)CC1 | inconclusive: -32.7%
CSc1ccccc1OCc1cc(C(=O)NC2CCOC2)no1 (stereo unspecified) | inactive: 8.16%
COc1cc2c(C(=O)N3CCN(C)CC3)c(C)n(-c3ccccc3)c2cc1Br | inactive: 0.479%
Cc1cccn2c(=O)c3cc(C#N)c(=N)n(CCN4CCOCC4)c3nc12 | inactive: 9.34%

SMILES | activity change, negative = inhibition
CCOc1ccccc1C1N(c2ccc(F)cc2)C(=O)C2CCCN21 (stereo unspecified) | inconclusive: -34.5%
COc1ccccc1NC(=O)CN1C(=O)CC(c2ccc(C)c(C)c2)=Nc2ccccc21 | inactive: 0.516%
COc1ccc(C(=O)NC2CCCc3ccccc32)cc1OC1CCN(C(C)=O)CC1 (stereo unspecified) | active: -54.2%
CC1CCc2c(nc3nc[nH]n3c2=O)C1 (stereo unspecified) | inactive: 18.3%
COc1ccc(NC(=O)CCNS(=O)(=O)c2cccc3nonc23)cc1Cl | inconclusive: -31.3%
Cc1ccc(Cl)cc1N1CCN(CCCNC(=O)c2nnc(Cc3cccc(Cl)c3)o2)CC1 | inconclusive: -30.8%
CCOc1ccc(NC(C)=O)cc1[N+](=O)[O-] | inconclusive: -32.6%
CCCOc1ccc(NC(=O)CC2C(=O)N(c3ccc(Cl)cc3)C(=O)N2CCc2ccncc2)cc1 (stereo unspecified) | inactive: 15.9%
COc1ccc(CNCCC(c2ccccc2)c2ccc(OC(C)C)cc2)cc1OC (stereo unspecified) | inactive: 0.525%
C=CCC1NS(=O)(=O)OCC1C(C)C (stereo unspecified) | inconclusive: -38.3%
COc1ccc(CC(=O)N/N=C(\C)CC(=O)Nc2cccc(F)c2)cc1 | inconclusive: -33.2%
COc1ccc(N2CCN(C(=O)c3ccc4c(c3)NC(=O)C(CSCc3ccccc3F)N4)CC2)cc1 (stereo unspecified) | inactive: 7.21%
O=C(CCn1c(=O)c2cccn2c2ccc(F)cc21)NCCc1ccccc1 | inconclusive: -44.9%
CCOc1cc(/C=N/NC(=O)C(O)(c2ccccc2)c2ccccc2)ccc1OC(=O)c1ccco1 | inconclusive: -30.2%
COc1cc(OC)c(NC(C)C(=O)N2CCCC2)cc1Cl (stereo unspecified) | inconclusive: -36.1%
O=C(Nc1ccccc1F)c1ccc(Br)o1 | inactive: -1.76%
O=C(NCCCn1ccnc1)c1cc2ccccc2o1 | inconclusive: -40.7%
Cc1ccc(C)c(NC(=O)CCn2nc(C)c3c(C)n(-c4ccccc4)nc3c2=O)c1 | active: -53.9%
Cc1ccc(C)c(NC(=O)c2ccc3c(c2)CCN3S(C)(=O)=O)c1 | inconclusive: -34.1%
COc1ccc2oc(C(=O)OCC(=O)/C(C#N)=C(\C)N)c(C)c2c1 | inconclusive: -30%
CC(=O)CC(=O)NC1CCc2ccccc21 (stereo unspecified) | inconclusive: -30.2%
CCN1CCN(c2ccc(NC(=O)c3ccc4c(c3)[nH]c(=O)n4Cc3ccc(OC)cc3)cc2)CC1 | inactive: 8.62%

A portion from further up, for reference:
SMILES | activity change, negative = inhibition
COc1ccc(NC(=O)CCNS(=O)(=O)c2cccc3nonc23)cc1Cl | inconclusive: -31.3%
Cc1ccc(Cl)cc1N1CCN(CCCNC(=O)c2nnc(Cc3cccc(Cl)c3)o2)CC1 | inconclusive: -30.8%
CCOc1ccc(NC(C)=O)cc1[N+](=O)[O-] | inconclusive: -32.6%
CCCOc1ccc(NC(=O)CC2C(=O)N(c3ccc(Cl)cc3)C(=O)N2CCc2ccncc2)cc1 (stereo unspecified) | inactive: 15.9%
COc1ccc(CNCCC(c2ccccc2)c2ccc(OC(C)C)cc2)cc1OC (stereo unspecified) | inactive: 0.525%

(further entries)

SMILES | activity change, negative = inhibition
O=C(CN1C(=O)c2ccc([N+](=O)[O-])cc2C1=O)Nc1cc(S(=O)(=O)N2CCOCC2)ccc1Cl | inconclusive: -32.9%
CCOC(=O)C1CCCN(C(=O)c2ccc(OC)c([N+](=O)[O-])c2)C1 (stereo unspecified) | inconclusive: -35.1%
Cc1cc(C(=O)N/N=C/c2c(CO)cnc(C)c2O)c2ccccc2n1 | inconclusive: -30.2%
CCOC(=O)/C(C#N)=C/c1ccc(-c2ccc(Br)cc2)o1 | inactive: 24.5%
Cc1ccc2c(c1)N=C(c1ccc(F)cc1)CO2 | inactive: -17%
FC(F)(F)c1ccc(Cl)c(Nc2nnc(-c3ccncc3)s2)c1 | inconclusive: -33.3%
CC1=C(c2ccc(C(C)C)cc2)S(=O)(=O)NC1=NCCCN1CCN(c2ccccc2F)CC1 | inactive: -19%
Cc1ccc(CSc2nnc(Nc3ccc(C)cc3)s2)cc1 | inactive: 1.87%
CC1CN(S(=O)(=O)c2ccc(NC(=O)CCN3C(=O)c4ccccc4C3=O)cc2)CC(C)O1 (stereo unspecified) | inconclusive: -32.8%
Cc1ccc(CSCCNC(=O)c2ccc(C)cc2)cc1 | inconclusive: -33.3%
COc1cc(NC(=S)NCCc2c[nH]c3ccccc23)c(OC)cc1Cl | inactive: -7.82%
C[C@@H]1CN([C@@H](C)CO)C(=O)CCCn2nncc2CO[C@H]1CN(C)C(=O)Nc1ccc(C(F)(F)F)cc1 | inconclusive: -30.7%
Cc1ccc(CCNC(=O)Cn2ncc3c([nH]c4ccc(C)cc43)c2=O)cc1 | inconclusive: -30.1%
CCCCOc1ccc(Cn2c(=O)oc3ccc(C)cc32)cc1 | inconclusive: -46%
Cc1cc(C)c2c(c1)-c1c(ssc1=S)C(C)(C)N2C(=O)CN1C(=O)c2ccccc2C1=O | inconclusive: -33.3%
CCCC(=O)NC(c1ccco1)c1cc(Cl)c2cccnc2c1O (stereo unspecified) | inactive: -6.79%
COc1cccc(N2C(=O)CSC23C(=O)N(Cc2ccccc2)c2ccccc23)c1 (stereo unspecified) | inactive: -4.55%
Cc1cc(OCC(=O)OCC(=O)N(C)C2CCS(=O)(=O)C2)ccc1Cl (stereo unspecified) | inconclusive: -30.7%
Cc1ccc(CS(=O)(=O)CCC(=O)NCCCN2CCCC2)cc1 | inconclusive: -30.4%
COC(=O)CC1C(=O)NCCN1C(=O)c1ccccc1 (stereo unspecified) | inconclusive: -39.9%
Cc1ccc(N2C(=O)CCC2(C(N)=O)c2ccccc2)cc1 (stereo unspecified) | inconclusive: -39.7%
CC(C)(C)c1nc2scc(-c3ccc(Cl)cc3)c2c(=O)o1 | inactive: 10.3%

SMILES | activity change, negative = inhibition
CNC(=S)Nc1ccc(N2CCCC2)c(S(=O)(=O)Nc2ccc(OC)cc2)c1 | inconclusive: -33.5%
CCN(CC)CC(O)CNc1ccnc2c(Cl)ccc(Cl)c12 (stereo unspecified) | inconclusive: -30.8%
Cc1ccccc1NC(=O)c1cccc(N2C(=O)C3CCC(C)CC3C2=O)c1 (stereo unspecified) | inconclusive: -30.1%
CCN1C(=NCCc2ccc(Br)cc2)N[C@@H](c2ccccc2)[C@H](C(=O)OC)[C@H]1C | inactive: 9.2%
Cc1cccn2c(=O)c(/C=C(\C#N)C(=O)NC3CCS(=O)(=O)C3)c(Oc3ccc(F)cc3)nc12 (stereo unspecified) | inconclusive: -34.6%
CC(C)CCn1nc(C(=O)Nc2nc3c(s2)CCCC3)c2ccccc2c1=O | inconclusive: -38.4%
COC(=O)c1cccc(Nc2c(-c3cc(Br)ccc3O)nc3nc[nH]n23)c1 | inconclusive: -30.8%
CC(=O)Nc1nnc(SCC(=O)Nc2nc(C)cs2)s1 | inconclusive: -30.3%
Cc1ccc(OCC(=O)N2CCc3ccccc32)c([N+](=O)[O-])n1 | inconclusive: -30.2%
O=C/C(=C\Nc1ccccn1)c1nc2ccccc2o1 | inconclusive: -33.7%
NC(=O)c1ccc(NC(=O)CSc2nnc(-c3cccnc3)n2Cc2ccco2)cc1 | inconclusive: -36.4%
O=C(Nc1ccc2c(c1)N(C1CCCC1)C(=O)c1ccccc1S2)c1cccc(F)c1 | inactive: 7.85%
Cn1c(=O)n(Cc2ccccc2)c(=O)c2c1nc1n2CCCN1Cc1ccccc1 | inconclusive: -32%
O=C1C=C(Nc2cccnc2)c2ccccc2C1=O | inactive: 6.49%
COc1cc(/C=c2\sc3n(c2=O)C(c2ccccc2)C(c2ccccc2)=NN=3)ccc1O (stereo unspecified) | inactive: -6%
CCOC(=O)C1=C(C)NC(=O)NC1c1c(OCC(=O)N2CCCCC2)ccc2ccccc12 (stereo unspecified) | inconclusive: -32.8%
CN(CCc1ccccn1)C(=O)CCc1nnc(CCCc2ccccc2)o1 | inactive: -1.49%
CCOC(=O)c1csc(NC(=O)c2ccc(C#N)cc2)n1 | inconclusive: -41.2%
Fc1ccc(-c2csc(N3CCOCC3)n2)cc1 | inconclusive: -32.5%
Cc1ccc(N=Cc2cc3c(cc2O)OC(N)=C(C#N)C3c2ccccc2)cc1 (stereo unspecified) | inconclusive: -33.9%
